Reference: PubChem BioAssay AID1224830 (NIAID, 2016)
The whole screen tested about 18,000 reagents; below is a random part of them. About 2,900 of them (16%) count as active. 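Calls are made per well; low scores hint the gene aids the LPS response, high scores that it dampens it.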 A number with no mark means an inactive call. Repeated entries: four replicate wells of each siRNA pool. Reagent sequences are not shown.

- Aim: 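Genes whose knock-down alters the TNF-alpha reporter response to LPS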 (primary screen)
- Cells: human THP-1 monocytic leukaemia cells, TNF dual-luciferase reporter clone, PMA-differentiated to macrophage-like cells
- Reagent: siRNA pool against human genes, 50 nM
- Time to read-out: LPS for 4 h, given about 3 days after siRNA transfection
- Treatment: bacterial LPS (TLR4 ligand), 10 ng/ml
- Detection: 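Ratio of firefly to renilla light, scaled to the plate median and expressed as a robust z-score per replicate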
- Reading the numbers: TNF reporter robust z-score: higher = stronger TNF reporter response to LPS
- Active means: 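Each well counts as active if its z-score is over 2.8 or under -1.5; controls are left without a call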

Gene | TNF reporter robust z-score
BHLHE40 | -1.12
BHLHE40 | -0.92
BHLHE40 | -1.08
BHLHE40 | -0.83
B4GALT1 | -0.83
B4GALT1 | 1.07
B4GALT1 | 0.52
B4GALT1 | 0.86
KPNB1 | -0.81
KPNB1 | -0.19
KPNB1 | -0.51
KPNB1 | -0.52
COMMD5 | -0.73
COMMD5 | 0.53
COMMD5 | -0.61
COMMD5 | -0.55
CT47A4 | -0.3
CT47A4 | 0.09
CT47A4 | -0.06
CT47A4 | 0.41
TMEM171 | -0.63
TMEM171 | -0.3
TMEM171 | -1.13
TMEM171 | -0.75
PLEKHA5 | -0.05
PLEKHA5 | -0.84
PLEKHA5 | -0.38
PLEKHA5 | -0.16
SLC46A3 | -0.81
SLC46A3 | 0.13
SLC46A3 | -0.42
SLC46A3 | 1.37
CD302 | -0.9
CD302 | -1.3
CD302 | -1.38
CD302 | -0.61
S1PR2 | -0.99
S1PR2 | -1.34
S1PR2 | -0.74
S1PR2 | -0.92
CXCL9 | -1
CXCL9 | -1.26
CXCL9 | -1.23
CXCL9 | -1.37
DEFB134 | -0.4
DEFB134 | -0.18
DEFB134 | -0.37
DEFB134 | -0.81
HEMK2 | -0.12
HEMK2 | 0.93
HEMK2 | 0.49
HEMK2 | 1.91
RPL35 | 0.43
RPL35 | 1.91
RPL35 | -0.04
RPL35 | 1.26
PRB1 | 0.39
PRB1 | 0.53
PRB1 | -0.9
PRB1 | -0.84
NALF1 | 0.37
NALF1 | 0.33
NALF1 | -0.13
NALF1 | -0.3
MS4A6E | -0.21
MS4A6E | 2.27
MS4A6E | 1.6
MS4A6E | 1.18
LAMP2 | 0.05
LAMP2 | 0.89
LAMP2 | 0.58
LAMP2 | 1.18
NRROS | 0.25
NRROS | -0.32
NRROS | -0.9
NRROS | -0.43
AKR1D1 | 1.9
AKR1D1 | 1.63
AKR1D1 | 2.22
AKR1D1 | 1.61
PPIB | 2.47
PPIB | 1.33
PPIB | 1.78
PPIB | 2.49
SPCS2P4 | 2.04
SPCS2P4 | 1.96
SPCS2P4 | 0.22
SPCS2P4 | 2.41
DDX19B | -0.29
DDX19B | 0.63
DDX19B | -0.21
DDX19B | 0.57

17 entries from above in another layout:
{"Gene": "B4GALT1", "TNF reporter robust z-score": 1.07}
{"Gene": "B4GALT1", "TNF reporter robust z-score": 0.52}
{"Gene": "B4GALT1", "TNF reporter robust z-score": 0.86}
{"Gene": "KPNB1", "TNF reporter robust z-score": -0.81}
{"Gene": "KPNB1", "TNF reporter robust z-score": -0.19}
{"Gene": "KPNB1", "TNF reporter robust z-score": -0.51}
{"Gene": "KPNB1", "TNF reporter robust z-score": -0.52}
{"Gene": "COMMD5", "TNF reporter robust z-score": -0.73}
{"Gene": "COMMD5", "TNF reporter robust z-score": 0.53}
{"Gene": "COMMD5", "TNF reporter robust z-score": -0.61}
{"Gene": "COMMD5", "TNF reporter robust z-score": -0.55}
{"Gene": "CT47A4", "TNF reporter robust z-score": -0.3}
{"Gene": "CT47A4", "TNF reporter robust z-score": 0.09}
{"Gene": "CT47A4", "TNF reporter robust z-score": -0.06}
{"Gene": "CT47A4", "TNF reporter robust z-score": 0.41}
{"Gene": "TMEM171", "TNF reporter robust z-score": -0.63}
{"Gene": "TMEM171", "TNF reporter robust z-score": -0.3}

The listing continues.
Gene | TNF reporter robust z-score
CARTPT | -1.05
CARTPT | -0.96
CARTPT | -1.13
CARTPT | -0.8
APOBEC3B | -0.14
APOBEC3B | -0.03
APOBEC3B | -0.51
APOBEC3B | -0.27
ZNF676 | 1
ZNF676 | 0.22
ZNF676 | 0.66
ZNF676 | 0.46
MRPL9 | -0.28
MRPL9 | -0.18
MRPL9 | -0.94
MRPL9 | -0.19
PWWP3B | 0.42
PWWP3B | -0.23
PWWP3B | 0.91
PWWP3B | -0.27
STRADA | 0.22
STRADA | 0.8
STRADA | -0.9
STRADA | -0.78
TRAF2 | -0.26
TRAF2 | -0.29
TRAF2 | -0.71
TRAF2 | -0.59
TTLL3 | 2.02
TTLL3 | 1.45
TTLL3 | 2.98 (active)
TTLL3 | 5.31 (active)
UBQLN4 | -0.87
UBQLN4 | -1.14
UBQLN4 | -1.28
UBQLN4 | 0.03
NKX2-3 | -1.51 (active)
NKX2-3 | -0.99
NKX2-3 | -1.21
NKX2-3 | -1.04
ABCA13 | 0.73
ABCA13 | -0.3
ABCA13 | -0.34
ABCA13 | -0.47
FLJ46838 (retired record) | 0.25
FLJ46838 (retired record) | 1.43
FLJ46838 (retired record) | 1.12
FLJ46838 (retired record) | 1.11
